In the test the test system is MDA-MB-231 complex spheroid viability. The experiment in a line: Anticancer human tumor MDA-MB-231/ATCC cell line growth inhibition.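 Note: drug exposure lasted 7 days starting on day 3 of spheroid growth.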 Conditions: hits give low values. An excerpt: Multicellular complex tumor spheroid response to LSD1 Inhibitor Iadademstat in combination with a variety of drugs and investigational agents in selected tumor cell lines
The current study was undertaken to assess response to LSD1 inhibitors in combination with standard-of-care drugs and investigational agents in solid tumor complex spheroid models as well as in the K-562 leukemia. Complex spheroids include a stromal component modeled by human endothelial cells (HUVEC) and fibroblasts modeled by human mesenchymal stem cells (MSCs). The concentration ranges selected for each drug and investigational agent were based upon clinically achievable concentrations if the clinical Cmax of the agent was known.
Compounds. The drugs and investigational agents used in this study are listed on Table 1. All of the agents used, including staurosporine (NSC755774) and gemcitabine (NSC613327), were obtained from the Developmental Therapeutics Program, NCI. FDA-approved anticancer drugs are available from the NCI at http://dtp.nci.nih.gov/branches/dscb/oncology_drugset_explanation.html. Drugs and investigational agents were >95% pure by proton nuclear magnetic resonance (NMR) and liquid chromatography/mass spectrometry (LC/MS). Stock solutions were prepared at 400x in DMSO, stored at -70 degrees C, and diluted in fresh medium prior to their use. The final concentration of DMSO in cell culture wells never exceeded 0.25% (v/v). The FDA-approved anticancer drug set is available from the Developmental Therapeutics Program at https://dtp.cancer.gov/organization/dscb/obtaining/available_plates.htm. All drugs and investigational agents were tested over a range starting from a high concentration at or near the clinical Cmax and decreasing in half-log increments. If the clinical Cmax for an agent had not been determined, the highest concentration tested was 10 microM.
Cell Lines. […]

Each structure is given as a SMILES string. Values joined by “and” are separate entries in the source; they are usually repeats but may differ in a detail not shown here. Equal entries are not always repeated. This continues a long series; more values of the same kind are listed elsewhere.

A word on the viability, T/C: it is the ratio of treated to control. Regarding `NC1CCC(NC2CC2c2ccccc2)CC1` (stereo not drawn), the viability, T/C is 103% [middle of 18 runs] (compound 0.316 µM); 69.6% and 64.6% (compound 10 µM).
For the compound `NC1CC1c1ccc(-c2cccc(O)c2)cc1` (stereo not drawn), the viability, T/C (compound 0.1 µM) is 78.1% [middle of 25 runs].

For the origin of these results see PubChem BioAssay AID1918953 (Molecular Pharmacology Branch, DTP, NCI, 2023).
